Laboratory results: patent US7935848B2, “Butone derivatives useful as cooling agents” (Givaudan S.A., priority 2007, dated 2011)

Test: Cooling intensity: panelists taste aqueous solutions, compared with menthol at 2 ppm
Assay type: in vivo, human
Details: aqueous solution at the stated concentration

With CCCC(=O)[C@@H]1C[C@H](C)CC[C@H]1C(C)C [Example 1, 1-((1R,2S,5R)-2-isopropyl-5-methylcyclohexyl)butan-1-one] as the compound, how does the Odor read?
The Odor was “None”.

For CC(C)[C@@H]1CC[C@@H](C)C[C@H]1C(=O)CCCc1ccccc1 [Example 2, 1-((1R,2S,5R)-2-isopropyl-5-methylcyclohexyl)-4-phenylbutan-1-one], which Odor is on record?
Its Odor is “None”.

For CC(C)[C@@H]1CC[C@@H](C)C[C@H]1C(=O)CCCc1ccccn1 [Example 3, 1-((1R,2S,5R)-2-isopropyl-5-methylcyclohexyl)-4-(pyridin-2-yl)butan-1-one], which Odor is on record?
The Odor was “None”.

With CC(C)C(C)(C(=O)CCCc1ccccc1)C(C)C [Example 4, 5-isopropyl-5,6-dimethyl-1-phenylheptan-4-one] as the compound, how does the Odor read?
The Odor was “None”.

With CCNC(=O)C1CC(C)CCC1C(C)C (stereo not drawn) [WS-3, N-ethyl p-menthanecarboxamide, reference compound] as the compound, how does the Odor read?
Its Odor is “None”.

With CC(C)[C@@H]1CC[C@@H](C)C[C@H]1O [l-Menthol, reference compound] as the compound, how does the Odor read?
Its Odor is “Minty”.
